The record followed here is PMC4226561.

The target of experiment [1] is aquaporin PIP2-1, split-YFP (BiFC) fusion, positive control (UniProt P43286). Nature of the experiment: split reporter; BiFC: Y/N and Y/C fragments of YFP each linked to the N-terminus of the proteins, transiently expressed in leaves of 3-week-old N. benthamiana; YFP fluorescence by confocal microscopy 3 days after infiltration.
Experiment [2] addresses T1, CESA6 (cellulose synthase, primary cell wall), MbYTH fusion (Arabidopsis thaliana), Q94JQ6.
T1 chain: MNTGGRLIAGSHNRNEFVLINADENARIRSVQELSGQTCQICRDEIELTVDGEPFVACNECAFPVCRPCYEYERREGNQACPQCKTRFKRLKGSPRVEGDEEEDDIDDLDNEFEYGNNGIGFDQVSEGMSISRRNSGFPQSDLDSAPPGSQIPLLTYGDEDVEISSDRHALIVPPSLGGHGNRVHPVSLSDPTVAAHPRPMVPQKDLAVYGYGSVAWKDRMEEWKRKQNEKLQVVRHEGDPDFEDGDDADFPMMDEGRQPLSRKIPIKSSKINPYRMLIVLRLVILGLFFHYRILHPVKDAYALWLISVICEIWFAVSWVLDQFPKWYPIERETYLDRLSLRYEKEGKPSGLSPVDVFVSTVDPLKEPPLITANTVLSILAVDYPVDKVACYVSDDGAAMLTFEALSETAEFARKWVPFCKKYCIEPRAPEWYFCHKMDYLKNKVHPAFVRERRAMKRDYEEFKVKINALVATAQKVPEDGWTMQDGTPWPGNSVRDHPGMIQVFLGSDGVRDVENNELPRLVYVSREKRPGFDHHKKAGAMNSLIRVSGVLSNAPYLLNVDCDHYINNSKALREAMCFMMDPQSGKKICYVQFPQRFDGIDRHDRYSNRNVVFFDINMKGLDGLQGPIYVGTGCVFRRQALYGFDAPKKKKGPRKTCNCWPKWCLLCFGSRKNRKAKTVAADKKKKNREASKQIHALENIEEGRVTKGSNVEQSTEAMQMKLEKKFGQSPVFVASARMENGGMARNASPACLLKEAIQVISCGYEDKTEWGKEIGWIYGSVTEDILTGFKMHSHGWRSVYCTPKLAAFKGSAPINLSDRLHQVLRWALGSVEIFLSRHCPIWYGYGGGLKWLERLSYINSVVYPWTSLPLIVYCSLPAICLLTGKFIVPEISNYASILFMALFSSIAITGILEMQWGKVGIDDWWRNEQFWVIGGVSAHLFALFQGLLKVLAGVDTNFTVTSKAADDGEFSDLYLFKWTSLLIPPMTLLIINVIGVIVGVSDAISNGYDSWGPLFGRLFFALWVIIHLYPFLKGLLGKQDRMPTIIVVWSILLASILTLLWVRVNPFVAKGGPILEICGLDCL
Nature of the experiment: two-hybrid; split-ubiquitin membrane-based yeast two-hybrid (MbYTH) in S. cerevisiae NMY51; bait fused to Cub-TF, prey to NubG; 100 colonies of each combination spotted on selective medium with 3-AT, 30°C, three days, grown spots counted; called 'in vitro' by the paper. The following applies: remark: other sources report otherwise.

Experiment [3] addresses T2, CESA6, full length, split-YFP (BiFC) fusion (Arabidopsis thaliana), Q94JQ6.
T2 chain: T1 chain
Nature of the experiment: split reporter; BiFC: Y/N and Y/C fragments of YFP each linked to the N-terminus of the proteins, transiently expressed in leaves of 3-week-old N. benthamiana; YFP fluorescence by confocal microscopy 3 days after infiltration. The settings on record: remark: other sources report otherwise.

Results are given in words; binding and its absence hold for the method and conditions named. For part of these data: Binding seen in cells or lysates may run through a third protein. Some results given as binding are weak or reduced against the parent protein; the word gives no strength. Where a sequence is shown, tags or fusion partners need not be part of it.

B1: aquaporin PIP2-1, split-YFP (BiFC) fusion, positive control (protein, UniProt P43286 1-287)
chain: MAKDVEAVPGEGFQTRDYQDPPPAPFIDGAELKKWSFYRAVIAEFVATLLFLYITVLTVIGYKIQSDTDAGGVDCGGVGILGIAWAFGGMIFILVYCTAGISGGHINPAVTFGLFLARKVSLPRALLYIIAQCLGAICGVGFVKAFQSSYYTRYGGGANSLADGYSTGTGLAAEIIGTFVLVYTVFSATDPKRSARDSHVPVLAPLPIGFAVFMVHLATIPITGTGINPARSFGAAVIYNKSKPWDDHWIFWVGPFIGAAIAAFYHQFVLRASGSKSLGSFRSAANV
Consider B1, for which, in experiment [1], the binding entry was “binds”.

B2: KORRIGAN1 (KOR1), complete protein (AA 1 to 621), MbYTH fusion, Q38890 1-621 (protein)
chain: MYGRDPWGGPLEINTADSATDDDRSRNLNDLDRAALSRPLDETQQSWLLGPTEQKKKKYVDLGCIIVSRKIFVWTVGTLVAAALLAGFITLIVKTVPRHHPKTPPPDNYTIALHKALKFFNAQKSGKLPKHNNVSWRGNSGLQDGKGETGSFYKDLVGGYYDAGDAIKFNFPMAYAMTMLSWSVIEYSAKYEAAGELTHVKELIKWGTDYFLKTFNSTADSIDDLVSQVGSGNTDDGNTDPNDHYCWMRPEDMDYKRPVTTCNGGCSDLAAEMAAALASASIVFKDNKEYSKKLVHGAKVVYQFGRTRRGRYSAGTAESSKFYNSSMYWDEFIWGGAWMYYATGNVTYLNLITQPTMAKHAGAFWGGPYYGVFSWDNKLAGAQLLLSRLRLFLSPGYPYEEILRTFHNQTSIVMCSYLPIFNKFNRTNGGLIELNHGAPQPLQYSVNAAFLATLYSDYLDAADTPGWYCGPNFYSTSVLRDFARSQIDYILGKNPRKMSYVVGFGTKYPRHVHHRGASIPKNKVKYNCKGGWKWRDSKKPNPNTIEGAMVAGPDKRDGYRDVRMNYNYTEPTLAGNAGLVAALVALSGEEEATGKIDKNTIFSAVPPLFPTPPPPPAPWKP
Turning to B2, the binding result in experiment [2] is reported as “binds”.

B3: KORRIGAN1 (KOR1), full length, split-YFP (BiFC) fusion, Q38890 1-621 (protein)
chain: B2 chain
For the molecule B3, the binding result in experiment [3] is “binds”.
